No constants are given. Whether binding was seen depends on the method and setting. In cells and extracts the contact can be indirect. Some results given as binding are weak or reduced against the parent protein; the word gives no strength.
Biological target: peroxisome proliferator activated receptor γ (UniProt P37231)
Experiment: co-IP; HEK 293 T cells transfected with the indicated plasmids, exposed to DMSO or luteolin (10 μM); lysed in pre-cooled IP buffer, specified antibodies and protein G Bestarose 4FF beads for 4 h, western blot; bait not stated

Sequences of proteins named here, by UniProt entry; tags and fusion partners are left off.
UniProt P37231: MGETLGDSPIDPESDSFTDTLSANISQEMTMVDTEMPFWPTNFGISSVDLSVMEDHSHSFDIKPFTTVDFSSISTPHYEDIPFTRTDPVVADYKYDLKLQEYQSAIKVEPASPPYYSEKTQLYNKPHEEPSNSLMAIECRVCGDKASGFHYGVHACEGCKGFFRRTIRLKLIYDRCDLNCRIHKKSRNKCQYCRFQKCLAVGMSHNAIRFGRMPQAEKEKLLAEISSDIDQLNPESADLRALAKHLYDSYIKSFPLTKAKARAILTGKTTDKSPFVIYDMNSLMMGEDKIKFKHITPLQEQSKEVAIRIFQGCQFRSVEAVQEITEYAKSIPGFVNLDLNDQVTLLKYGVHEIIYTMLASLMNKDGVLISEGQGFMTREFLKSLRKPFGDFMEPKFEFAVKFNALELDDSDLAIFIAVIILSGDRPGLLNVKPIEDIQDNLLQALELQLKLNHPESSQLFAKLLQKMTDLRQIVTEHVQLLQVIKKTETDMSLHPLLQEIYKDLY
UniProt Q9BYV6: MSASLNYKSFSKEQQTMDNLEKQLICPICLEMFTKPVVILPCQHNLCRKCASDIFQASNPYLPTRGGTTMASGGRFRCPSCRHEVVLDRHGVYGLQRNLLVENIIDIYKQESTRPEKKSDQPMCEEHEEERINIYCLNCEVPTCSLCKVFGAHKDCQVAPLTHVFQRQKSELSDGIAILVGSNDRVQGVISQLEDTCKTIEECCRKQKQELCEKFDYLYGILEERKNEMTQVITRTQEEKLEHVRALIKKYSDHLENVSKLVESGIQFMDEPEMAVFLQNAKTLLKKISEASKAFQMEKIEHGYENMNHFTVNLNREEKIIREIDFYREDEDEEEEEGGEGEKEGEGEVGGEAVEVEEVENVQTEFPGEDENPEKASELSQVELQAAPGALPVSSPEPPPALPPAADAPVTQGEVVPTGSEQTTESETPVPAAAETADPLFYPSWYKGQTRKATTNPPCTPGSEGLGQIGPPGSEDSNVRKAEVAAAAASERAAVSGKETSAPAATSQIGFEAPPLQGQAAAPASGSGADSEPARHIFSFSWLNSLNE

binding: binds
Substance: tripartite motif containing 55 (from UniProt Q9BYV6 1-548) (enzyme)
